Measurements published in patent publication US20140294856A1, “COMBINATION TREATMENT COMPRISING A HDAC6 INHIBITOR AND AN AKT INHIBITOR” (priority 2011, published 2014).

Test system: HCT116 cells
Test: Combination studies, SRB assay, combination index (CalcuSyn)
Format: cell-based, human

## O=C(CCCCCCC(=O)Nc1ccccc1)NO [SAHA, suberanoyl hydroxamic acid, reference compound]
  combination effect with inhibitors of the PI3K/AKT/mTOR pathway: synergises as well
